Here are results for one compound from the supplement of paper PMC12297408.

In this experiment the test system is Plasmodium falciparum NF54/iGP1_RE9H ulg8 stage V gametocytes. The experiment can be described thus: gametocyte viability (luciferase signal relative to DMSO control) (% of DMSO control); higher = less gametocytocidal activity, active = 50 or less. To be noted: exposure time: 72 h. The method, boiled down:
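NF54/iGP1_RE9Hulg8 stage V gametocytes (day 12; ~2.5% gametocytemia, 3% hematocrit) in medium with 0.5% Albumax II were added to 96-well plates of nanolitre-spotted compounds (10 mM DMSO stocks), giving 10 µM or 1 µM, one well each. Plates were incubated 72 h at 37 °C. Then 90 µl was mixed with 10 µl D-luciferin (30 mg/ml) and luminescence was read on an IVIS Lumina II. Viability is relative to the mean of plate DMSO vehicle controls.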

This is a selection; strong and weak results do not stand in their true shares.

For `Cc1ccccc1-n1c(Cn2nc(-c3cccc(O)c3)c3c(N)ncnc32)nc2cccc(C)c2c1=O`, the gametocyte viability is, setting by setting: (concentration: 1 µM) inactive: 94.8; (concentration: 10 µM) inactive: 91.9.
